Out of some 340,000 compounds screened, about 4,500 (1.3%) were called active. This list was built around the results that the source calls inconclusive (neither active nor inactive); the mix of calls is not that of the screen. The call rests on the fitted dose curve; in most records, active means well fitted inhibition curve with a large enough effect; inconclusive means small, poorly fitted or top-dose-only effect, or another doubt; inactive means no such curve, though single readings can be large or run the other way. Potencies beside an inconclusive call are fits to weak or partial responses and may not hold up.
These compounds were tested against DNA polymerase beta (Homo sapiens) (UniProt P06746) (assay: qHTS Assay for Inhibitors of DNA Polymerase Beta). Settings: Pol beta primer extension/strand displacement, fluorescence kinetic; activity change, negative = inhibition: at 114 µM (top of the series).
In short: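 10 nM enzyme + cpd, 15 min RT; start with substrate 50 nM final; read 0 min and after 10 min RT. Corrected, normalized data; 4-parameter Hill curve fit.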
In the case of `COc1ccc(O)c(/C=N/NC(=O)CCC(=O)Nc2ccc(C)cc2)c1`, the Potency is reported as inconclusive: 39.8 µM [inhibitor, partial curve].
In the case of `COc1ccc(C(=O)N/N=C/c2ccc(OC)c(CN3CCc4cc(OC)c(OC)cc4C3C)c2)cc1` (stereo not given), the Potency is reported as inconclusive: 11.2 µM [inhibitor, full curve, poor fit].
In the case of `Cc1cc(Cl)ccc1OCC(=O)Nc1ccccc1NS(=O)(=O)c1cccs1`, the activity change, negative = inhibition is reported as inconclusive: -30.5% [inhibitor].
With `Cc1cc(C)cc(NC(=O)c2cccc(N3CCCS3(=O)=O)c2)c1` the Potency was “inactive”.
`COc1cc2nc(N3CCNCC3)nc(N)c2cc1OC` was tested, and the Potency was inconclusive: 79.4 µM [inhibitor, partial curve].
For `O=C(NCCc1ccccc1)c1ccc(CSc2nc3ccncc3n2Cc2ccccc2)cc1`, the Potency was “inactive”.
In the case of `COC(=O)c1c(C)c2c(C)cc3ccccn3c-2c1C(=O)OC`, the Potency is reported as inconclusive: 89.1 µM [inhibitor, single point].
For `O=C(CCNc1ccc(Cc2ccncc2)cc1)c1ccc([N+](=O)[O-])cc1`, the Potency was inconclusive: 89.1 µM [inhibitor, single point].
In the case of `COc1ccc(C2=NN(C(=O)c3cccs3)C(c3ccccc3OC)C2)cc1OC` (stereo not given), the Potency is reported as inconclusive: 10 µM [inhibitor, partial curve, poor fit].
`O=C(O)c1ccccc1C(=O)c1ccc(N2CCCC2)c([N+](=O)[O-])c1` was tested, and the Potency was inconclusive: 100 µM [inhibitor, single point].
For `Cc1cc(C)c(C(=O)OCCNC(=O)c2cccnc2)cc1C`, the Potency was inconclusive: 89.1 µM [inhibitor, single point].
For `O=C(N/N=C1/C(=O)c2cccc3cccc1c23)c1ccc(Cl)cc1`, the Potency was inconclusive: 2.82 µM [inhibitor, full curve].
With `O=C(O)c1ccc(N2C(=O)CC(N3C(=O)/C(=C/c4ccc(Cl)cc4)SC3=S)C2=O)cc1` (stereo not given) the Potency was “inactive”.
In the case of `CSc1cccc(CN2CCN(Cc3ccc(F)c(F)c3)C(CCO)C2)c1` (stereo not given), the Potency is reported as inconclusive: 56.2 µM [inhibitor, single point].
In the case of `CC(C)Sc1ncc(Cl)c(C(=O)Nc2ccc(S(=O)(=O)N3CCCCC3C)cc2)n1` (stereo not given), the Potency is reported as “inactive”.
With `CCC(C(=O)NCc1ccccc1)n1ncn2c(cc3occc32)c1=O` (stereo not given) the Potency was “inactive”.
In the case of `Cc1ccc(NC(=O)c2cc3c(=O)n(Cc4cccnc4)ccc3nc2C)cc1F`, the Potency is reported as “inactive”.
With `COc1ccc(-c2csc3nc(C(C)(C)C)oc(=O)c23)cc1OC` the Potency was “inactive”.
`CCN(CC)c1ccc(NC(=O)c2ccc(=O)[nH]c2)cc1S(=O)(=O)Nc1ccccc1OC` was tested, and the Potency was inconclusive: 89.1 µM [inhibitor, single point].
With `CCCN(c1ccc(C)cc1)c1nc(=O)c2cccnc2s1` the Potency was inconclusive: 89.1 µM [inhibitor, single point].
`O=C(O)CN1C(=O)c2ccc(Oc3ccc4c(c3)C(=O)N(CC(=O)O)C4=O)cc2C1=O` was tested, and the Potency was “inactive”.
For `O=C(O)c1cccc(Cn2c(Cl)c(/C=N/NC(=O)c3cc4ccccc4cc3O)sc2=O)c1`, the Potency was active: 11.2 µM.
`COc1ccc(C(=O)c2cn(CC(=O)Nc3ccc4c(c3)OCO4)c3ccc(OC)cc3c2=O)cc1` was tested, and the Potency was “inactive”.
`CCOc1cc(/C=N/NC(=O)CSc2cccc3cccnc23)ccc1O` was tested, and the Potency was inconclusive: 35.5 µM [inhibitor, full curve, poor fit].
In the case of `Cc1cc(C)c2sc(N(CCN(C)C)C(=O)CCS(=O)(=O)c3ccccc3)nc2c1`, the Potency is reported as inconclusive: 39.8 µM [inhibitor, single point].
`O=C(N/N=C/c1ccc(O)cc1)Nc1cccc2nsnc12` was tested, and the Potency was inconclusive: 56.2 µM [inhibitor, partial curve].
In the case of `CCn1cc(C(=O)NC(C)c2ccccc2)c(=O)c2cc(S(=O)(=O)N3CCc4ccccc4C3)ccc21` (stereo not given), the Potency is reported as “inactive”.
In the case of `COCCCC1CCN(Cc2nc(-c3ccccc3)no2)CC1`, the Potency is reported as inconclusive: 0.562 µM [inhibitor, full curve, poor fit].
For `O=c1c2[nH]c3ccccc3c2ncn1CCN1CCCCC1`, the Potency was inconclusive: 89.1 µM [inhibitor, single point].
With `O=C(O)c1c(C(=O)O)c(-c2ccc(Br)cc2)n2c1CSC2` the Potency was “inactive”.
With `Oc1ccc(/C=N/Nc2cc(N3CCOCC3)nc(N3CCOCC3)n2)cc1O` the Potency was inconclusive: 20 µM [inhibitor, single point].
In the case of `COc1ccc(C(=O)N2CCC(C(=O)Nc3ccccc3Cl)CC2)cc1`, the Potency is reported as “inactive”.
For `Cc1sc2c(c1C)CN(Cc1ccncc1)CN2C(=O)c1ccco1`, the Potency was inconclusive: 79.4 µM [inhibitor, single point].
With `O=c1c(/C=C(\O)c2ccccc2)nc2ccccc2n1-c1ccccc1` the Potency was “inactive”.
For `O=C(NCc1ccco1)c1cccn2c(=O)c3cc4ccccc4cc3nc12`, the Potency was active: 14.1 µM.
With `CCOC(=O)c1c(C)oc2ccc(OC(=O)c3cccs3)cc12` the Potency was inconclusive: 39.8 µM [inhibitor, single point].
With `O=S1(=O)NC(=NCC(c2ccco2)N2CCCCC2)c2ccccc21` (stereo not given) the Potency was “inactive”.
`CCOc1ccc(CSC(CC(=O)O)C(=O)O)cc1` (stereo not given) was tested, and the Potency was inconclusive: 0.126 µM [inhibitor, full curve, poor fit].
In the case of `O=C(O)C1CC(c2ccccc2F)=NO1` (stereo not given), the Potency is reported as inconclusive: 10 µM [inhibitor, partial curve].
For `CC1CCN(S(=O)(=O)c2cc(C(=O)N3CCN(c4ccccc4F)CC3)n(C)c2)CC1`, the Potency was inconclusive: 89.1 µM [inhibitor, single point].
In the case of `COc1ccc(CN2CCCN(CC(=O)Nc3ccc4c(c3)OCCO4)S2(=O)=O)cc1`, the Potency is reported as inconclusive: 89.1 µM [inhibitor, single point].
For `CCN(c1ccccc1)S(=O)(=O)c1cc(C(=O)OC(C)C(=O)Nc2ccc3c(c2)OCCO3)ccc1C` (stereo not given), the Potency was active: 10 µM.
For `Cc1cc(C(=O)NC2CCCc3c2cnn3-c2ccc(C(C)(C)C)cc2)nn1C` (stereo not given), the Potency was inconclusive: 0.794 µM [inhibitor, full curve, poor fit].
`COc1ccc(C2CC(=O)N(CC(=O)Nc3cccc(C)c3C)c3ccccc3S2)cc1OC` (stereo not given) was tested, and the Potency was “inactive”.
`CNc1ccccc1C(C)(C)c1cc(-c2ccco2)n[nH]1` was tested, and the Potency was inconclusive: 79.4 µM [inhibitor, single point].

— PubChem BioAssay AID485314 (National Center for Advancing Translational Sciences (NCATS), 2010)
On the % scale 0 is the no-effect control and ±100 the full control effect; potency means the concentration at half of the fitted maximal effect.
